Measurements reported in PubChem BioAssay AID1224828 (NIAID, 2016).

Purpose: 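Find genes required for NF-kappaB p65 moving into the nucleus after LPS in mouse macrophages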 (primary screen)
Cell system: mouse RAW264.7 G9 macrophage reporter cells (GFP-p65, Tnf promoter-mCherry)
Knock-down reagent: siRNA pool against mouse genes, 100 nM
Time to read-out: 2 days siRNA transfection, then 40 min LPS before fixation
Treatment: LPS (Salmonella minnesota R595) at 10 ng/ml
Detection: 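Imaged p65 nuclear translocation ratio, normalised to the plate median, converted to robust z-scores and averaged across two replicates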
Scale: p65 translocation robust z-score: higher = more nuclear NF-kappaB p65 after LPS than the plate median; nuclear/cytoplasmic p65 ratio: higher = more nuclear NF-kappaB p65
Call rule: 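Active if robust z is above 3.3 (negative regulators) or below -1.56, the Tlr4 control median (positive regulators); activity score 50 or more; control wells not called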
Calls: active = hit (p65 shift raised or lowered); inactive = no clear change
The whole screen tested about 17,000 reagents; this is a random part of them. Over the whole deposit, 762 (4.5%) got an active call. 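Active calls include both raised and lowered p65 entry, mostly lowered; wells with fewer than 50 cells lack a z-score.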 Raw values vary from plate to plate and are shown uncorrected. Some reagents were tested in more than one well and are listed for each.

The first 2 entries as a preview:
gene,p65 translocation robust z-score,"nuclear/cytoplasmic p65 ratio, rep 1","nuclear/cytoplasmic p65 ratio, rep 2",low cell count flag,outcome
Ciz1,-1.35,1.27,1.21,enough cells to score,inactive
Tssk5,,1.46,1.38,fewer than 50 cells per well; well left out of scoring,inactive

The listing, repeating the preview:
gene,p65 translocation robust z-score,"nuclear/cytoplasmic p65 ratio, rep 1","nuclear/cytoplasmic p65 ratio, rep 2",low cell count flag,outcome
Ciz1,-1.35,1.27,1.21,enough cells to score,inactive
Tssk5,,1.46,1.38,fewer than 50 cells per well; well left out of scoring,inactive
Pigq,0.25,1.45,1.29,enough cells to score,inactive
Or4f53,,1.31,1.27,fewer than 50 cells per well; well left out of scoring,inactive
Ccdc80,0.05,1.35,1.52,enough cells to score,inactive
Snx4,-0.56,1.32,1.19,enough cells to score,inactive
Slc18a3,-0.1,1.39,1.25,enough cells to score,inactive
H2-Ob,0.59,1.56,1.41,enough cells to score,inactive
Nop14,,1.41,1.4,fewer than 50 cells per well; well left out of scoring,inactive
Fkbp8,-0.5,1.32,1.35,enough cells to score,inactive
Dlat,,1.2,1.09,fewer than 50 cells per well; well left out of scoring,inactive
Ppp1r14c,-0.15,1.48,1.39,enough cells to score,inactive
Fzd8,0.9,1.58,1.77,enough cells to score,inactive
Cdk19,-0.29,1.59,1.39,enough cells to score,inactive
Cdk19,-0.02,1.44,1.42,enough cells to score,inactive
Rimoc1,0.08,1.5,1.64,enough cells to score,inactive
Or1x2,1.03,1.58,1.39,enough cells to score,inactive
Gm4884,,1.36,1.54,fewer than 50 cells per well; well left out of scoring,inactive
Il22ra2,-0.34,1.41,1.35,enough cells to score,inactive
Trim45,,1.34,1.24,fewer than 50 cells per well; well left out of scoring,inactive
Knop1,,1.55,1.58,fewer than 50 cells per well; well left out of scoring,inactive
Pbsn,1.9,1.78,1.39,enough cells to score,inactive
Cgas,0.02,1.45,1.39,enough cells to score,inactive
Nxnl1,-2.23,1.13,1.17,enough cells to score,active
Tsn,0.62,1.37,1.3,enough cells to score,inactive
B930095G15Rik,1.35,1.75,2.1,enough cells to score,inactive
Ccdc22,-1.65,1.23,1.16,enough cells to score,active
Timeless,-0.8,1.44,1.38,enough cells to score,inactive
Pcdhb6,0.12,1.5,1.22,enough cells to score,inactive
Cers4,-1.66,1.24,1.28,enough cells to score,active
Slc6a6,-0.11,1.39,1.24,enough cells to score,inactive
Nrgn,-0.25,1.46,1.34,enough cells to score,inactive
Or4c35,2.2,1.91,1.74,enough cells to score,inactive
Tecta,0.6,1.5,1.71,enough cells to score,inactive
Ddah1,0.01,1.55,1.57,enough cells to score,inactive
Map2k7,-0.92,1.41,1.26,enough cells to score,inactive
Ifngr1,0.65,1.44,1.53,enough cells to score,inactive
Plrg1,-1.07,1.23,1.37,enough cells to score,inactive
Gjb3,0.05,1.35,1.46,enough cells to score,inactive
Inpp4a,-1.04,1.41,1.18,enough cells to score,inactive
